This assay has as its target Ezrin N-ERMAD (N-terminal ERM domain, FERM domain, Met1-Lys296) (human) (UniProt P15311). The assay is described as follows: other fluorescence titration; steady-state tryptophan fluorescence; 2 μM ezrin construct titrated with S100 protein; 20 mM HEPES pH 7.5, 150 mM NaCl, 0.5 mM TCEP, 1 mM CaCl2; 25°C; quadratic binding equation; both purified.

These are yes or no findings as the source states them, for the method shown. Some entries that bind do so weakly or less than the wild type.

B1: S100B (protein, UniProt P04271 1-92)
chain: MSELEKAMVALIDVFHQYSGREGDKHKLKKSELKELINNELSHFLEEIKEQEVVDKVMETLDNDGDGECDFQEFMAFVAMVTTACHEFFEHE
Take B1: the binding result is reported as “binds weakly”.

The values above are taken from article PMC5426754.
